Laboratory results as given in patent US20250134946A1 (GEL4MED, INC., priority 2021, published 2025).
Some of these results come from one statement about several compounds together.

Experiment: Net peptide charge and isoelectric point (FIGS. 9-10)
Format: physicochemical
Conditions: pH 7
From the text: The peptide may be purified. For example, the peptide may be lyophilized. […] Other peptides are within the scope of the disclosure.
Exemplary peptides having a charge of +5 to +9 include […](d)[…], […](d)[…], and […](d)[…]. In other embodiments, the purified peptide may be substantially neutral. […] Net charge may be selected by peptide design. Design of electrostatic charge in the peptide hydrogel may allow control of charge interaction with cell membrane and proteins.

Substance	net charge
VKVRVRVRV(d)PPTRVRVRVKV (VKVRVRVRVPPTRVRVRVKV; D-proline; MOD_RES 10 D-amino acid)	+5 to +9
VLTKVKTKV(d)PPTKVEVKVLV (VLTKVKTKVPPTKVEVKVLV; D-proline; MOD_RES 10 D-amino acid)	+5 to +9
